Measurements: US20260102341A1, “Two-Stage Microchip Drug Delivery Device and Methods” (Dare MB Inc., priority 2019, published 2026)
For at least one compound, name, drawing or mass did not settle the structure.

Tests used:
[1] = in vitro release of levonorgestrel from two-stage microchip drug delivery device into aqueous environment, HPLC; type: physicochemical; conditions: device of Example 1
[2] = reference line in FIG. 16B; cited from earlier work

C#C[C@]1(O)CC[C@H]2[C@@H]3CCC4=CC(=O)CC[C@@H]4[C@H]3CC[C@@]21CC [levonorgestrel]
amount of levonorgestrel released per day ([1]; 42% spray dried levonorgestrel with hyaluronic acid, silicone membrane nominal 70 μm, 4 reservoirs of 2 microliters opened, 0.5% SDS, 0.02% sodium azide in normal saline, 30-day test): > 30 μg per day
release profile over time (FIG. 16B, linear regression line B) ([1]; same medium, measured days 1-30): linear release rate
minimum daily dose required to be effective as a form of contraception (dashed line A) [2]: 30 μm per day
